Measured values: PubChem BioAssay AID1487 (National Center for Advancing Translational Sciences (NCATS), 2009)
Hit rate of the full screen: of about 200,000 compounds, about 25 (0.01%) were called active. Inconclusive results, whose numbers are uncertain, are shown with a selection of clear calls. Calls follow the shape of the dose curve; as a rule, active = well fitted inhibition curve with a large enough effect in the signal ratio, with a control signal flat (not every such curve was filed as active); inconclusive = small, poorly fitted or top-dose-only effect, or effect the other way, or a change in a side signal; inactive = flat fitted curve, though single readings scatter; the % refers to the signal ratio. Where the call is inconclusive, the potency comes from a doubtful curve fit.

Test: qHTS Assay for Modulators of Lamin A Splicing
Conditions: HeLa LMNA splicing GFP/RFP minigene ratio, 48 h; ratio change, negative = inhibition: at 46.1 µM (top of the series) unless noted
Method in brief: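 Read-out is the ratio of GFP to DsRed2 object intensity, acquired by 488 nm laser-scanning cytometry on HeLa lamin A-EGFP minigene reporter cells. Compound incubation 48 hrs at 37 °C in Opti-MEM with 2% FBS; DMSO 0.5% final.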
% is scaled to controls: 0 for no effect and ±100 for the full control effect; potency is read from the fitted curve at half-maximal effect.

| Compound | ratio change, negative = inhibition | Potency |
| --- | --- | --- |
| Cc1ccc(CNC(=O)CSc2nc3n[nH]c(C)c3c(=N)n2-c2cccc(C)c2)cc1 | inconclusive: 31.6% |  |
| CC(C)CC(=O)NCc1ccc2[nH]c3c(c2c1)CCCC3 | inconclusive: 10.7% [at 9.22 µM] |  |
| O=c1[nH]cnc2scc(C3COc4ccccc4O3)c12 (configuration not stated) | inactive: -1.54% |  |
| Cn1ncc(N=Cc2c(O)ccc3ccccc23)c1C(=O)Nc1cccc(Cl)c1 | inconclusive: -31.6% [at 46 µM] |  |
| CCN(CC)c1ccc(/C=C2/SC(=O)N(C(C)C)C2=O)o1 |  | inconclusive: 10 µM [activator, partial curve] |
| O=C(/C=C/c1ccccc1Cl)NC1CCS(=O)(=O)C1 (configuration not stated) | inconclusive: 27.2% [at 46 µM] |  |
| CCOC(=O)C1=C(C)N=c2s/c(=C\c3ccc(OCC(=O)O)cc3)c(=O)n2C1c1ccc(OC(C)C)cc1 (configuration not stated) | inconclusive: -17.4% |  |
| COc1ccccc1N1CCN(C(=O)c2cnc(N3CCCCC3)c3ccccc23)CC1 | inconclusive: -20.8% [at 46 µM] |  |
| O=C(O)c1ccc(COc2ccccc2/C=C2/NC(=O)N(c3cccc(Cl)c3)C2=O)cc1 | inconclusive: 13.6% |  |
| Cc1ccc2c(Cl)cc(Cl)c(OCC(=O)NCc3ccco3)c2n1 | inactive: 2.5% |  |
| CNC(=O)c1sc(-c2cccnc2)nc1C | inactive: 4.59% |  |
| C/C(=N\NC(=O)c1ccccc1O)c1c(O)cc(C)oc1=O | inactive: -8.35% |  |
| O=C(/C=C/c1ccco1)N(c1ccccn1)c1ccccn1 | inactive: -12.9% [at 46 µM] |  |
| C[n+]1ccc(/C=C/c2ccc(Br)cc2)cc1 | inconclusive: -2.26% |  |
| Cc1ccc(NS(=O)(=O)c2ccc(C(=O)N3CCN(c4ncccn4)CC3)cc2)cc1 | inconclusive: -32.8% [at 46 µM] |  |
| COC(=O)N/N=C/c1cn(CC(C)COc2ccccc2)c2ccccc12 (configuration not stated) |  | inconclusive: 35.5 µM [fluorescent, single point] |
| COc1cccc(NC(=O)Cn2nnc(C(=O)NCCc3ccccc3)c2N)c1 | inactive: 5.89% [at 46 µM] |  |
| O=C(Nc1cccc(C(=O)OCc2cc(=O)n3c4c(sc3n2)CCCC4)c1)c1cccc(Cl)c1 | inconclusive: -18.8% [at 46 µM] |  |
| Cc1sc2nc(COC(=O)c3ccc(N4CCCC(C)C4)c([N+](=O)[O-])c3)[nH]c(=O)c2c1C (configuration not stated) | inconclusive: 0.56% |  |
| CC(=O)NC(Cc1cccc(F)c1)C(=O)NC1CCN(c2nnnn2-c2ccccc2)CC1 (configuration not stated) | inconclusive: 29.5% [at 46 µM] |  |
| S=C(NCc1ccncc1)Nc1ccc(Cl)c(Cl)c1 |  | inconclusive: 35.5 µM [fluorescent, single point] |
| Cc1ccc(NC(=O)C2CCN(S(=O)(=O)c3ccc4c(c3)CCCN4C(=O)C3CCC3)CC2)cc1 | inconclusive: -10.3% [at 46 µM] |  |
| COc1ccc(-n2cccc2/C=C/[N+](=O)[O-])cc1 |  | inconclusive: 35.5 µM [fluorescent, single point] |
| CCN(CC)c1ccc(NC(=O)CN2CCN(S(=O)(=O)c3cc(Cl)ccc3OC)CC2)cc1 | inconclusive: -9.95% [at 46 µM] |  |
| O=C1c2ccccc2C(=O)N1c1cccc2cccnc12 | inconclusive: -1.06% |  |
| Cc1cc(C)nc(SCc2ccc(C(=O)N/N=C/c3ccccn3)cc2)n1 |  | inconclusive: 11.2 µM [inhibitor, partial curve] |

| Compound | ratio change, negative = inhibition | Potency |
| --- | --- | --- |
| Cc1ccc(Cn2ccnc2SCC(=O)Nc2ccccc2C(F)(F)F)cc1 | inconclusive: -8.33% [at 46 µM] |  |
| COc1ccc(OC)c(NC(=O)CN(c2ccc(OC)c(Cl)c2)S(C)(=O)=O)c1 | inconclusive: 11.4% |  |
| CCC(=O)OC1CSc2nc3ccccc3n2C1 (configuration not stated) | inconclusive: 3.2% |  |
| COc1ccccc1CNC(=O)C1CCN(S(=O)(=O)c2ccc3[nH]c(=O)ccc3c2)CC1 | inconclusive: -0.982% [at 46 µM] |  |
| Cc1cc(C(=O)COC(=O)Cc2n[nH]c(=O)c3ccccc23)c(C)n1-c1ccc2c(c1)OCCO2 | inconclusive: -21.7% |  |
| CCCN(CC(=O)Nc1ccc(Cl)cc1Cl)C(=O)/C=C/c1ccco1 |  | inconclusive: 35.5 µM [cytotoxic, single point] |
| COc1ccc(Cl)cc1-c1nc(SCC(=O)NC(C)C(C)C)n[nH]1 (configuration not stated) | inconclusive: 6.43% [at 9.22 µM] |  |
| CCOC(=O)c1ccc(NC(=O)COc2cccc3c(=O)n(C)ccc23)cc1 | inconclusive: -4.79% [at 46 µM] |  |
| O=C(O)CN1C(c2ccccc2)=Nc2ccc(Br)cc2C1c1ccccc1 (configuration not stated) | inconclusive: -21.9% [at 46 µM] |  |
| CCOC(=O)c1sc(NC(=O)CSc2nncs2)c(C(=O)OCC)c1C | inconclusive: 5.94% |  |
| COc1ccccc1N1CCN(S(=O)(=O)CCNC(=O)C2CC(=O)N(c3ccccc3)C2)CC1 (configuration not stated) | inconclusive: 7.89% [at 46 µM] |  |
| O=C(O)CCC(=O)N1CCN(c2cccc(Cl)c2)CC1 | inactive: 12.3% |  |
| COc1cc(CNc2ccc(O)cc2)cc(Br)c1OCc1ccccc1F | inactive: -7.05% |  |
| COc1cc(NS(=O)(=O)c2ccc(F)cc2)c(OC)cc1NC(C)=O | inconclusive: 4.64% |  |
| CC(=O)S[C@H]1CC2=CC(=O)CC[C@@]2(C)[C@H]2CC[C@@]3(C)[C@H](CC[C@]34CCC(=O)O4)[C@@H]12 |  | inconclusive: 11.2 µM [inhibitor, partial curve, poor fit] |
| O=C(OCCN1C(=O)c2cccc3c(N4CCOCC4)ccc(c23)C1=O)c1ccc(Cl)cc1Cl | inconclusive: 3.71% |  |
| O=C(NNC(=O)c1ccccc1-n1cccc1)c1ccc(F)cc1 | inconclusive: 17.7% [at 46 µM] |  |
| Cc1ccc(NC(=O)COc2ccc(S(=O)(=O)N3CCOCC3)cc2)cc1 | inactive: 13.2% |  |
| CC(C)CCN1C(=O)c2ccc(-c3nc4ccccc4c(=O)o3)cc2C1=O | inactive: 11.1% |  |
| Cc1c(C#N)c(N=CN(C)C)c(C(=O)c2ccc(Br)cc2)n1-c1ccccc1 | inactive: 1.05% |  |
| COc1ccc(CN=C2NN=C(c3ccccc3)CS2)cc1 | inactive: 7.26% [at 9.22 µM] |  |
| Cc1cccc(NC(=O)C(C)n2cc([N+](=O)[O-])cn2)n1 (configuration not stated) | inconclusive: 19.9% [at 46 µM] |  |
| C=CCc1ccc(OCCCCOc2ccc(C(=O)O)cc2)c(OC)c1 | inconclusive: 23.4% [at 46 µM] |  |
| Cc1cccc(CCNC(=O)c2ccc3c(c2)nc2n3CCCCC2)c1 | inconclusive: 10.6% [at 46 µM] |  |
| Cc1cc(C(=O)CN2C(=O)c3ccccc3S2(=O)=O)c(C)n1CC1CCCO1 (configuration not stated) | inactive: 9.31% |  |
| CCOC(=O)N1CCN(c2cc(NCCO)c([N+](=O)[O-])c3nonc23)CC1 | inconclusive: -3.52% [at 46 µM] |  |

| Compound | ratio change, negative = inhibition | Potency |
| --- | --- | --- |
| CC1Cc2ccccc2N1C(=O)CSc1nnc(Cn2nnc3ccccc32)n1C (configuration not stated) | inconclusive: 10.7% |  |
| CC(C)(C)C(=O)Nc1ccc(Sc2ccc([N+](=O)[O-])cc2)cc1 | inactive: -16.7% |  |
| N/C(=N\OC(=O)Cc1ccc([N+](=O)[O-])cc1)c1ccccn1 | inconclusive: -12.3% [at 46 µM] |  |
| CC12CCC(=O)N1C(C(=O)OCC(=O)Nc1cccc(Br)c1)CS2 (configuration not stated) | inconclusive: -8.69% [at 46 µM] |  |
| NC(=O)CSC1=N/C(=C\c2ccco2)C(=O)N1c1ccc(OC(F)F)cc1 | inconclusive: -36.5% [at 46 µM] |  |
| Cc1ccc(S(=O)(=O)Nc2cccc(-c3ccc4nnc(C)n4n3)c2)s1 |  | inconclusive: 7.08 µM [inhibitor, partial curve] |
| CCCn1cc(S(=O)(=O)c2cc(C)ccc2C)c(=O)c2cc(F)c(N3CCCCCC3)cc21 | inactive: -7.51% [at 46 µM] |  |
| CCCc1nc2sc3c(c2c(=O)n1NC(=O)CCCl)CCCC3 | inconclusive: -12% |  |
| CCN1C(=O)c2ccccc2Sc2ccc(NC(=O)Cc3ccc(OC)cc3)cc21 |  | inconclusive: 0.794 µM [inhibitor, full curve] |
| CC1(OC(=O)c2cnc3ccccc3n2)C(=O)C=C2C=C3CCCN3C=C2C1=O (configuration not stated) | inactive: -24.4% [at 9.22 µM] |  |
| COc1ccc(N=C2C(=O)N3CCCc4cccc2c43)cc1 | inactive: 8.13% |  |
| CC(=O)N(CC1CCCO1)c1nnc(-c2ccccn2)s1 (configuration not stated) | inactive: 2.91% |  |
| CCCc1cc(=O)[nH]c(SCc2cc(C(=O)OC)c(C)o2)n1 | inactive: 1.19% |  |
| O=C(CCc1ccc(S(=O)(=O)NCc2ccccc2)cc1)NCc1ccco1 | inconclusive: 10.1% |  |
| COc1ccc(S(=O)(=O)N2CCN(C(=S)NC3CCCCC3)CC2)cc1 |  | inconclusive: 35.5 µM [inhibitor, single point] |
| CCc1ccc(NC(=O)c2c(C(=O)Nc3ccccc3)sc3nc(C)cc(=O)n23)cc1 |  | inconclusive: 35.5 µM [activator, single point] |
| Cc1cc2c(c(=O)n1CCCn1ccnc1)C(c1ccco1)C(C#N)=C(N)O2 (configuration not stated) | inactive: 2.76% |  |
| COc1ccc(NC(=O)CCNS(=O)(=O)c2ccc3c(c2)CCN3C(=O)C2CC2)cc1Cl | inconclusive: 6.51% [at 46 µM] |  |
| COc1ccc(-c2nnc(SCC(=O)Nc3cccc(Cl)c3C)nc2-c2ccc(OC)cc2)cc1 | inconclusive: 5.11% [at 46 µM] |  |
| O=C(NNC(=O)c1ccc(SCC2CCCO2)c([N+](=O)[O-])c1)c1ccc(F)cc1 (configuration not stated) | inconclusive: 3.39% |  |
| NC1CCN(O)C1=O (configuration not stated) | inconclusive: -5.61% |  |
| C1CCC(N=C(NC23CC4CC(CC(C4)C2)C3)N2CCOCC2)CC1 | inconclusive: -30% |  |
| Cc1ccc(-c2noc(CCC(=O)N(C)c3ccccc3C)n2)cc1 | inconclusive: -32.4% |  |
| CCN(CC)S(=O)(=O)c1ccc2[nH]cc(C(=O)NCCc3ccccc3)c(=O)c2c1 | inconclusive: 9.12% [at 46 µM] |  |
| COc1ccc(-c2cc(C(F)(F)F)nc(NCc3cccnc3)n2)cc1 | inconclusive: 15.7% |  |

Rewritten as labelled records: 4 of the compounds above
CC1Cc2ccccc2N1C(=O)CSc1nnc(Cn2nnc3ccccc32)n1C (configuration not stated)
  ratio change, negative = inhibition: inconclusive: 10.7%
N/C(=N\OC(=O)Cc1ccc([N+](=O)[O-])cc1)c1ccccn1
  ratio change, negative = inhibition: inconclusive: -12.3% [at 46 µM]
Cc1ccc(S(=O)(=O)Nc2cccc(-c3ccc4nnc(C)n4n3)c2)s1
  Potency: inconclusive: 7.08 µM [inhibitor, partial curve]
CCCn1cc(S(=O)(=O)c2cc(C)ccc2C)c(=O)c2cc(F)c(N3CCCCCC3)cc21
  ratio change, negative = inhibition: inactive: -7.51% [at 46 µM]
